Values from PubChem BioAssay AID504744 (Drosophila RNAi Screening Center, 2011)
In all, the deposit lists about 23,000 reagents; this is an unselected part of those with a known target gene and a result. Of all reagents, 98 (0.43%) got an active call. 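Only hit calls are given; the phospho-dAkt signals, z-scores and hit direction were not deposited.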 Reagents against one gene are numbered here. Names joined by + are all predicted targets of the reagent.

Aim: 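Find genes whose loss alters insulin-driven dAkt phosphorylation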 (primary screen)
Cells: Drosophila Kc167 cells
Knock-down reagent: long dsRNA against Drosophila genes, 250 ng dsRNA per well of a 384-well plate
Timing: 3 days of knock-down, then overnight serum-free starvation before stimulation
Conditions: bovine insulin at 387 nM for 10 minutes after 12 h without serum
Detection: 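Per-well phospho-dAkt level from an in-cell fluorescent antibody stain, divided by a DNA-dye signal; log2 residuals turned into z-scores that take cell number into account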
Active means: 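Hit in the insulin screen when the two-replicate mean z-score is more extreme than plus or minus 2.5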

no.	gene knocked down	dsRNA no.	call
1	Eo (Ecdysone oxidase)	1	inactive
2	tfc (triforce)	1	inactive
3	tfc (triforce)	2	inactive
4	tfc (triforce)	3	inactive
5	tfc (triforce)	4	inactive
6	PVRAP (PVR adaptor protein)	1	inactive
7	PVRAP (PVR adaptor protein)	2	inactive
8	CG9626	1	inactive
9	d-cup (davis-cup)	1	inactive
10	CG33493	1	inactive
11	Hers + amn	1	inactive
12	obst-G (obstructor-G)	1	inactive
13	CG9737	1	inactive
14	Cenp-C (Centromeric protein-C)	1	inactive
15	mRpS2 (mitochondrial ribosomal protein S2)	1	inactive
16	CG15530	1	inactive
17	Tps1 (Trehalose-6-phosphate synthase 1)	1	inactive
18	osa	1	inactive
19	CG34231	1	inactive
20	Su(var)205 (Suppressor of variegation 205)	1	inactive
21	Pcf11 (Pcf11 cleavage and polyadenylation factor subunit)	1	inactive
22	CG9686	1	inactive
23	Map60 (Microtubule-associated protein 60)	1	inactive
24	PK2-R2 (Pyrokinin 2 receptor 2)	1	inactive
25	GATAe	1	inactive
26	ncd (non-claret disjunctional)	1	inactive
27	EMC2B + EMC2A	1	inactive
28	Acp29AB (Accessory gland protein 29AB)	1	inactive
29	CG31926	1	inactive
30	CG9899	1	inactive
31	CG1307	1	inactive
32	CG17380	1	inactive
33	CG6034	1	inactive
34	CG8944	1	inactive
35	CG8944	2	inactive
36	CG5937	1	inactive
37	CG18631 (retired record)	1	inactive
38	msl-1 (male-specific lethal 1)	1	inactive
39	CG8641	1	inactive
40	ng3 (new glue 3)	1	inactive
41	Tim17a1	1	inactive
42	Ppox (Protoporphyrinogen oxidase)	1	inactive
43	CG15435	1	inactive
44	Nubp2 (NUBP iron-sulfur cluster assembly factor 2)	1	inactive
45	CG12128	1	inactive
46	CG1662	1	inactive
47	CG3092	1	inactive
48	CG7924	1	inactive
49	ana (anachronism)	1	inactive
50	Papst2 (PAPS transporter 2)	1	inactive
51	CG2854	1	inactive
52	Lip3 (Lipase 3)	1	inactive
53	CG33096	1	inactive
54	CG14259	1	inactive
55	Ccdc58 (Coiled-coil domain-containing 58)	1	inactive
56	CG31213	1	inactive
57	CG31213	2	inactive
58	dbr (debra)	1	inactive
59	CG11438	1	inactive
60	CG18493	1	inactive
61	Nup93-1 (Nucleoporin 93kD-1)	1	inactive
62	CG5011	1	inactive
63	CG5011	2	inactive
64	CG5026	1	inactive

Taken from above.
Value of Tim17a1 under “call”: inactive
CG18631 (retired record), call: inactive
For “call”, CG14259 is entered as inactive
Value for CG15435 in “call”: inactive
Value for CG31213 #2 under “call”: inactive
CG5026, call: inactive
